This list was built around the results that the source calls inconclusive (neither active nor inactive); the mix of calls is not that of the screen. Potencies beside an inconclusive call are fits to weak or partial responses and may not hold up. The source made the active and inactive calls. The call rests on the fitted dose curve; in most records, active means well fitted curve in the direction sought with a large enough effect; inconclusive means small, poorly fitted or top-dose-only effect, or another doubt; inactive means no such curve, though single readings can be large; an effect the other way counts as inactive or inconclusive. Where a SMILES comes first, the peptide text is derived from it. [ ]: non-standard residue; d: D form. The star is where a group is joined. Nva = CCC[C@H](N)C(=O)O; Cbz = O=C(OCc1ccccc1)*
Columns and labels:
[1] = qHTS of pediatric cancer cell lines to identify multiple opportunities for drug repurposing: Confirmatory screen for LAN-5 cells (AID 1347113); details: activity change, negative = cytotoxicity: at 45.9 µM (top of the series); further: nearly all actives have a fitted effect of over 65% in size
Summary of the method: (§1)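 Cells (500-1,000/well) rested 5 h, then received compounds for 48 h; metabolically active cells were measured by CellTiter-Glo luminescence. Final concentrations spanned up to 46 µM (MIPE, 11-point) or 0.59 nM-46 µM (NPC, 8-point) in primary screens, 11-point in follow-ups.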

[2] = qHTS of pediatric cancer cell lines to identify multiple opportunities for drug repurposing: Confirmatory screen for NB-EBc1 cells (AID 1347115); details: NB-EBc1 neuroblastoma cells, viability (cytotoxicity); activity change, negative = cytotoxic: at 45.9 µM (top of the series);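 further: cells exposed to compound for 48 h before the viability read; nearly all actives have a fitted effect of over 45% in size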
Summary of the method: as §1

[3] = qHTS of pediatric cancer cell lines to identify multiple opportunities for drug repurposing: Confirmatory screen for BT-37 cells (AID 1347117); further: nearly all actives have a fitted effect of over 55% in size
Summary of the method: as §1

[4] = qHTS of pediatric cancer cell lines to identify multiple opportunities for drug repurposing: Confirmatory screen for TC32 cells (AID 1347118);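 further: cells exposed to compound for 48 h before the read; nearly all actives have a fitted effect of over 65% in size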
Summary of the method: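 Luminescent CellTiter-Glo read-out of metabolically active TC32 cells after 48 h compound exposure. Primary: MIPE 11-point, 0.78 nM–46 µM; NPC 8-point, 0.59 nM–46 µM. Confirmatory: 11-point dilutions.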

[5] = qHTS of pediatric cancer cell lines to identify multiple opportunities for drug repurposing: Confirmatory screen for MG 63 (6-TG R) cells (AID 1347119); details: MG-63 (6-TG resistant) osteosarcoma viability; activity change, negative = cytotoxicity: at 45.9 µM (top of the series); further: nearly all actives have a fitted effect of over 55% in size
Summary of the method: as §1

[6] = qHTS of pediatric cancer cell lines to identify multiple opportunities for drug repurposing: Confirmatory screen for DAOY cells (AID 1347114); further: nearly all actives have a fitted effect of over 65% in size
Summary of the method: (§2)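 Viability measured as metabolically active cells via CellTiter-Glo luminescence following 48 hours of compound exposure, 11-point dilutions in confirmatory testing. 500-1,000 cells/well plated 5 hours before dosing; controls were DMSO and 2.3 µM bortezomib.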

[7] = qHTS of pediatric cancer cell lines to identify multiple opportunities for drug repurposing: Confirmatory screen for SJ-GBM2 cells (AID 1347116); further: nearly all actives have a fitted effect of over 60% in size
Summary of the method: as §2

[8] = qHTS of pediatric cancer cell lines to identify multiple opportunities for drug repurposing: Confirmatory screen for BT-12 cells (AID 1347112); further: nearly all actives have a fitted effect of over 55% in size
Summary of the method: as §1
Potency means the concentration at half of the fitted maximal effect.

NC(N)=NC(=O)c1nc(Cl)c(N)nc1N
Potency [1]: inactive
Potency [2]: inactive
Potency [3]: inconclusive: 4140 nM [cytotoxic, full curve, poor fit]
Potency [4]: inconclusive: 23300 nM [cytotoxic, partial curve, poor fit]
Potency [5]: inactive

CNC(=O)[C@H](CC1=CN=C2C=CCC=C12)NC(=O)[C@@H](CC(=O)NO)CC(C)C
Potency [1]: inconclusive: 1170 nM [cytotoxic, full curve, poor fit]
Potency [6]: inconclusive: 18500 nM [cytotoxic, partial curve, poor fit]
Potency [2]: inconclusive: 1170 nM [cytotoxic, full curve, poor fit]
Potency [7]: inconclusive: 1310 nM [cytotoxic, full curve, poor fit]
Potency [4]: inconclusive: 657 nM [cytotoxic, full curve, poor fit]

Cc1cnc(-c2cc(N3CCN(C(=O)CCS(C)(=O)=O)CC3)ncc2Cl)c(C)c1
Potency [7]: inconclusive: 11700 nM [rising, partial curve, poor fit]
Potency [4]: inactive

CC1(C)CC(=O)c2c(C(F)(F)F)nn(-c3ccc(C(N)=O)c(NC4CCC(O)CC4)c3)c2C1 (configuration not stated)
Potency [8]: inactive
Potency [7]: inconclusive: 3690 nM [cytotoxic, full curve, poor fit]
Potency [5]: inconclusive: 147 nM [cytotoxic, full curve]

CN[C@@H]1CN(c2ccc3c(=O)c(C(=O)O)cn(-c4nccs4)c3n2)C[C@@H]1OC
Potency [1]: active: 1820 nM
Potency [5]: inconclusive: 7230 nM [cytotoxic, partial curve, poor fit]

CCOC(=O)C1=C(C)NC(=S)NC1c1cccc(O)c1 (configuration not stated)
Potency [1]: inactive
Potency [7]: inconclusive: 32900 nM [cytotoxic, single point]
Potency [3]: inconclusive: 32900 nM [cytotoxic, partial curve, poor fit]

CCC(C(=O)O)C1CCC(C)C(C(C)C(O)C(C)C(=O)C(CC)C2OC3(C=CC(O)[C@@]4(CC[C@](C)(C5CC[C@@](O)(CC)C(C)O5)O4)O3)C(C)CC2C)O1 (some centres not stated)
Potency [1]: active: 1170 nM
Potency [2]: inconclusive: 1470 nM [cytotoxic, full curve, poor fit]
Potency [7]: inconclusive: 18500 nM [cytotoxic, partial curve, poor fit]
Potency [3]: inactive
Potency [4]: inactive

CCC[C@@H](C=O)NC(=O)[C@H](CC(C)C)NC(=O)[C@H](CC(C)C)NC(=O)OCc1ccccc1 (Cbz-Leu-Leu-[Nva]-aldehyde)
Potency [7]: active: 2080 nM

C=CCn1c(=O)c2cnc(Nc3ccc(N4CCN(C)CC4)cc3)nc2n1-c1cccc(C(C)(C)O)n1
Potency [1]: inconclusive: 1170 nM [cytotoxic, full curve, poor fit]
Potency [2]: inconclusive: 4140 nM [cytotoxic, full curve, poor fit]
Potency [7]: active: 737 nM
Potency [3]: inconclusive: 1040 nM [cytotoxic, full curve, poor fit]
Potency [4]: inconclusive: 1650 nM [cytotoxic, full curve, poor fit]

COc1cc(NCc2ccc3nc(N)nc(N)c3c2C)cc(OC)c1OC
Potency [2]: inconclusive: 8270 nM [cytotoxic, full curve]
Potency [7]: inconclusive: 147 nM [cytotoxic, full curve, poor fit]

CC(C)CC(=O)Nc1n[nH]c2c1CN(C(=O)C1CCN(C)CC1)C2(C)C
Potency [1]: inconclusive: 1850 nM [cytotoxic, full curve, poor fit]
Potency [2]: inconclusive: 18500 nM [cytotoxic, partial curve, poor fit]
Potency [7]: inconclusive: 6570 nM [cytotoxic, full curve, poor fit]
Potency [3]: inconclusive: 29.3 nM [cytotoxic, full curve, poor fit]
Potency [4]: inconclusive: 32.9 nM [cytotoxic, full curve, poor fit]
Potency [5]: inconclusive: 26100 nM [cytotoxic, partial curve, poor fit]

COc1cc2c(c(OC)c1OC)-c1ccc(OC)c(=O)cc1[C@@H](NC(C)=O)CC2
Potency [1]: active: 89.1 nM
Potency [2]: inconclusive: 141 nM [cytotoxic, full curve]
Potency [7]: inconclusive: 56.2 nM [cytotoxic, full curve]
Potency [3]: active: 56.2 nM

CC(C=CC(=O)NO)=C[C@@H](C)C(=O)c1ccc(N(C)C)cc1
Potency [8]: active: 2930 nM
Potency [2]: active: 585 nM
Potency [7]: active: 2080 nM

COCC(=O)NCC=Cc1ccc2ncnc(Nc3ccc(Oc4ccc(C)nc4)c(C)c3)c2c1
Potency [8]: inconclusive: 13500 nM [cytotoxic, full curve]
Potency [7]: inactive
Potency [3]: active: 24000 nM

COc1cccc(Nc2c(C(N)=O)cnc3c(C)cc(S(=O)(=O)c4cccc(C(=O)N(C)C)c4)cc23)c1
Potency [1]: inactive
Potency [7]: inactive
Potency [3]: inactive
